Test results from publication PMC10654059.
These are yes or no findings as the source states them, for the method shown. For some of these results: A result given as binding can be weak or reduced; the word gives no strength. For some of these results: In cells and extracts the contact can be indirect. For some of these results: Sequences can lack the tags named with a protein.

Legend:
[1] = biological target: T1, T18-NudC (E. coli) (UniProt P32664); assay: two-hybrid; bacterial adenylate cyclase two-hybrid (BACTH) in E. coli BTH101; T18 and T25 fusions; colonies on LB agar with X-gal (40 µg/mL) and IPTG (0.5 mM) at 30°C, colour read after 2 days
T1 sequence: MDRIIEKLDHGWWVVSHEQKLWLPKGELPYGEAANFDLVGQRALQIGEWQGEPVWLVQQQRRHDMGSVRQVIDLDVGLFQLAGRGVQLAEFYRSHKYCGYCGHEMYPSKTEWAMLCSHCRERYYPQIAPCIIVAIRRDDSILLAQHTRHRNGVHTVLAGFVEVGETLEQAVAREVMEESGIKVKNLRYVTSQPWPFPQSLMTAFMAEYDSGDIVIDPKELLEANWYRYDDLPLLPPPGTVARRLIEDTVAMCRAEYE

[2] = biological target: T2, polyhistidine-tagged NudC (NudC-His) (E. coli) (UniProt P32664); assay: pull-down; NudC-His expressed in E. coli BL21(DE3)RIL; 10 µg RNase A added during the incubation with the Ni2+ sorbent; SDS-PAGE
T2 sequence: T1 sequence

[3] = biological target: T2, polyhistidine-tagged NudC (NudC-His) (E. coli); assay: pull-down; 243 µg purified recombinant NudC-His added to 5 mg lysate of E. coli BL21(DE3)RIL (16°C or 37°C) or BW25113 (16°C); Ni2+-charged Chelating Sepharose, 1 h 30 min at 8°C, washes with 60 mM imidazole; SDS-PAGE, band near 70 kDa cut out and identified by mass spectrometry; only the target purified
[4] = biological target: T2, polyhistidine-tagged NudC (NudC-His) (E. coli); assay: pull-down; NudC-His expressed in E. coli BL21(DE3)RIL (grown at 16°C or 37°C) or in Hfq-deficient JW4130 (16°C); 5 mg lysate on Ni2+-charged Chelating Sepharose, 1 h 30 min at 8°C, washes with 60 mM imidazole in lysis buffer B (pH 7.4, 100 mM NaCl); SDS-PAGE, band near 70 kDa cut out and identified by mass spectrometry
[5] = biological target: N-terminal region of NudC (NudC-N), T18 fusion (E. coli); assay: two-hybrid; bacterial adenylate cyclase two-hybrid (BACTH) in E. coli BTH101; T18 and T25 fusions; colonies on LB agar with X-gal (40 µg/mL) and IPTG (0.5 mM) at 30°C, colour read after 2 days
[6] = biological target: C-terminal region of NudC (NudC-C), T18 fusion (E. coli); assay: as above

For “C-terminal region of CsdA (CsdA-C), T25 fusion (E. coli) (domain or fragment)”, the binding [1] was “no binding”.

With “DEAD-box RNA helicase CsdA (from UniProt P0A9P6)” the binding [2] was “binds”, the binding [3] was “binds” and the binding [4] was “binds”.

For “N-terminal region of CsdA (CsdA-N), T25 fusion (E. coli) (domain or fragment)”, the binding [1] was “binds”.

B1: CsdA-T25 (protein, UniProt P0A9P6 1-629)
chain: MAEFETTFADLGLKAPILEALNDLGYEKPSPIQAECIPHLLNGRDVLGMAQTGSGKTAAFSLPLLQNLDPELKAPQILVLAPTRELAVQVAEAMTDFSKHMRGVNVVALYGGQRYDVQLRALRQGPQIVVGTPGRLLDHLKRGTLDLSKLSGLVLDEADEMLRMGFIEDVETIMAQIPEGHQTALFSATMPEAIRRITRRFMKEPQEVRIQSSVTTRPDISQSYWTVWGMRKNEALVRFLEAEDFDAAIIFVRTKNATLEVAEALERNGYNSAALNGDMNQALREQTLERLKDGRLDILIATDVAARGLDVERISLVVNYDIPMDSESYVHRIGRTGRAGRAGRALLFVENRERRLLRNIERTMKLTIPEVELPNAELLGKRRLEKFAAKVQQQLESSDLDQYRALLSKIQPTAEGEELDLETLAAALLKMAQGERTLIVPPDAPMRPKREFRDRDDRGPRDRNDRGPRGDREDRPRRERRDVGDMQLYRIEVGRDDGVEVRHIVGAIANEGDISSRYIGNIKLFASHSTIELPKGMPGEVLQHFTRTRILNKPMNMQLLGDAQPHTGGERRGGGRGFGGERREGGRNFSGERREGGRGDGRRFSGERREGRAPRRDDSTGRRRFGGDA
For B1, the binding [5] was “binds” and the binding [6] was “no binding”.
